The source of these data is the supplement of paper PMC8616043.

SMILES strings stand for the structures. Where a name gives a salt, the structure may show the parent alone. Some of the results follow. Repeats in this data set agree poorly, so a single value says little.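 PR50, a 50-repeat proline–arginine dipeptide protein from C9ORF72 (ALS/FTD), was expressed by transfection in U-2 OS human cells stably carrying a GFP sensor with import and classical export signals. Per-well nuclear-minus-cytoplasm GFP, normalized between in-plate DMSO (low) and PR-only (high), was scored versus other test wells; compounds well below zero were hits reversing PR.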

The test concerns U-2 OS NCT-C biosensor cells expressing PR50. Kind of test: Z-score of normalised NCT-C biosensor translocation index in PR50-expressing cells; higher = more nuclear biosensor (more disrupted nuclear export). To be noted: 3 µM; 24 h.
Regarding `CCCN[C@H]1CCc2nc(N)sc2C1` [Pramipexole Dihydrochloride Monohydrate], the Z-score was inactive: 0.159.
As for `CCCN[C@H]1CCc2nc(N)sc2C1` [Pramipexole dihydrochloride], the Z-score is inactive: 1.69.
Then `OC[C@H]1O[C@H]([S-])[C@H](O)[C@@H](O)[C@@H]1O.[Au+]` [Aurothioglucose], with inactive: -0.74; and `CCC(=O)N1CCN(C(=O)c2ccccc2)CC1`, with inactive: 0.0407; and `O=C(c1cccc(Br)c1)N1CCC(N2CCCC2)CC1`, with inactive: -0.779.
For `CC(=O)c1ccc(S(=O)(=O)NC(=O)NC2CCCCC2)cc1` [Acetohexamide], the Z-score was inactive: 0.344.
In the case of `CCCCC[C@H](O)/C=C/[C@@H]1[C@@H](C/C=C\CCCC(=O)O)[C@@H](O)C[C@H]1O` [Prostaglandin F2α] it was inactive: -0.612; in that of `CCSC(=N)N` [S-Ethylisothiourea hydrobromide], inactive: -0.32; in that of `CCCNC(C)C(=O)Nc1ccccc1C` (configuration not stated) [Prilocaine hydrochloride], inactive: -0.575.
Then `CCCNC(C)C(=O)Nc1ccccc1C` (configuration not stated) [Prilocaine·HCl], with inactive: -0.171; and `COc1ccc(CN(CCN(C)C)c2ccccn2)cc1` [Pyrilamine maleate], with inactive: 0.861.
Regarding `CC(COc1ccccc1)N(CCCl)Cc1ccccc1` (configuration not stated) [Phenoxybenzamine·HCl], the Z-score is inactive: 0.802.
In the case of `Nc1ncn([C@@H]2O[C@H](CO)[C@@H](O)[C@H]2O)c(=O)n1` [Azacitidine] it was inactive: -0.0743; in that of `Nc1ncn([C@@H]2O[C@H](CO)[C@@H](O)[C@H]2O)c(=O)n1` [5-azacytidine], inactive: 0.309.
Then `COc1cc(/C=C/C(=O)N2CCN(CC(=O)N3CCCC3)CC2)cc(OC)c1OC` [Cinepazide maleate], with inactive: -0.442; and `CCCCCCCCCCCCCCCCCCOP(=O)([O-])OC1CC[N+](C)(C)CC1` [Perifosine], with inactive: -0.891.
With `CCOC(=O)C1=C(C)NC(C)=C(C(=O)OCC)C1c1c(F)c(F)c(F)c(F)c1F` [Nemadipine-A], the Z-score is inactive: 0.0245.
As for `NC(=O)N1c2ccccc2C=Cc2ccccc21` [Carbamazepine], the Z-score was inactive: 0.107.
Turning to `CC1(C(=O)O)CCC2(C)CCC3(C)C(=CC(=O)C4C5(C)CCC(O)C(C)(C)C5CCC43C)C2C1` (stereo not drawn) [18-β-Glycyrrhetinic acid], the Z-score is inactive: -0.078.
Then `O=c1ncccn1[C@@H]1O[C@H](CO)[C@@H](O)[C@H]1O` [Zebularine], with inactive: -0.899; and `CN(C)CCN(Cc1cccs1)c1ccccn1` [Methapyrilene hydrochloride], with inactive: -0.456; and `CCCCCN(CCCOC)C(=O)C(CCC(=O)O)NC(=O)c1ccc(Cl)c(Cl)c1` (configuration not stated) [Loxiglumide], with inactive: -1.13.
In the case of `c1cnc2cc3c(cc2n1)[C@@H]1CNC[C@H]3C1` [Varenicline Tartrate] it was inactive: -0.629; in that of `C[C@@H](N)[C@H]1CC[C@H](C(=O)Nc2ccncc2)CC1`, inactive: -0.0166; in that of `CO[C@H]1/C=C/O[C@@]2(C)Oc3c(C)c(O)c4c(c3C2=O)C2=NC3(CCN(CC(C)C)CC3)NC2=C(NC(=O)/C(C)=C\C=C\[C@H](C)[C@H](O)[C@@H](C)[C@@H](O)[C@@H](C)[C@H](OC(C)=O)[C@@H]1C)C4=O` [Rifabutin], inactive: -0.561.
Then `O=c1cc(-c2ccc(O)cc2)oc2cc(O)cc(O)c12` [Apigenin], with inactive: -0.126; and `CC(C)C[C@H](NC(=O)[C@@H](Cc1c[nH]c2ccccc12)NC(=O)[C@H](Cc1ccc(O)cc1)NC(=O)[C@H](CO)NC(=O)[C@H](Cc1c[nH]c2ccccc12)NC(=O)[C@H](Cc1cnc[nH]1)NC(=O)[C@@H]1CCC(=O)N1)C(=O)N[C@@H](CCCN=C(N)N)C(=O)N1CCC[C@H]1C(=O)NCC(N)=O` [Triptorelin Acetate], with inactive: -0.628; and `CN(C)Cc1c(C(=O)NCCOc2ccc(C(=O)NO)cc2)oc2ccccc12`, with active: -3.01.
In the case of `CC(C)NCC(O)COc1ccc(COCCOC(C)C)cc1` (configuration not stated) [Bisoprolol hemifumarate], the Z-score was inactive: 0.362.
In the case of `CC(C)NCC(O)COc1ccc(COCCOC(C)C)cc1` (configuration not stated) [Bisoprolol Fumarate] it was inactive: -0.0498; in that of `CC(N)(C(=O)O)c1ccc(C(=O)O)cc1` (racemic) [(+-)-alpha-Methyl- (4-carboxyphenyl) glycine], inactive: 0.000585; in that of `O=C1CN2Cc3c(ccc(Cl)c3Cl)N=C2N1` [Anagrelide], inactive: -1.19.
For the compound `O=C1CN2Cc3c(ccc(Cl)c3Cl)N=C2N1` [Anagrelide hydrochloride], the Z-score was inactive: 4.45.
On to `CC1(C)CCC[C@](C)([C@H]2CC[C@]3(C)[C@@H]2[C@H](O)C[C@@H]2[C@@]4(C)CC[C@H](O)C(C)(C)[C@@H]4[C@@H](O)C[C@]23C)O1` [Panaxatriol], for which the Z-score is inactive: -0.782.
On to `Nc1nc(Cl)nc2c1ncn2[C@@H]1O[C@H](CO)[C@@H](O)[C@@H]1F` [Clofarabine], for which the Z-score was inactive: 0.735.
Then `CC(C)C(=O)OCC(=O)[C@@]12O[C@H](C3CCCCC3)O[C@@H]1C[C@H]1[C@@H]3CCC4=CC(=O)C=C[C@]4(C)[C@H]3[C@@H](O)C[C@@]12C` [Ciclesonide], with inactive: 0.199; and `CC(N)=O` [Acetamide], with inactive: 0.579.
With `COc1cc2c(cc1CC=C(C)C)C(=O)C[C@@H](c1ccc(O)cc1)O2` [Bavachinin A], the Z-score is inactive: 0.806.
With `CC(=O)OC[C@@]1(O)C[C@@]23CC[C@@H]4c5ccoc5CC[C@@]4(C)[C@@H]2CC[C@@H]1C3` [Cafestol acetate], the Z-score is inactive: -0.549.
With `COc1ccc(-c2cc(=O)c3c(O)cc(O)cc3o2)cc1O` [Diosmetin], the Z-score is inactive: -0.685.
As to `O=C1S/C(=C\c2ccc(OCc3ccc(B(O)O)cc3)cc2)C(=O)N1Cc1ccc(F)cc1`, the Z-score was inactive: 0.718.
With `CCc1cccc(N(C)C(=N)Nc2cccc3ccccc23)c1`, the Z-score was inactive: -0.639.
